The source of these data is the supplement of paper PMC10735217.

For this assay, the system named is HEK293A TEAD-LUC reporter. In words: TEAD-luciferase reporter activity (YAP activation), robust Z score vs plate; higher = stronger YAP/TEAD activation. As to conditions: 24 h. Background: Reporter assays use an easily measured gene product as a stand-in for the process of interest.

Counter-ions that a name gives are not always drawn. The list shows a part of the results. This data set is noisy: repeats of one test often differ as much as different tests do.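 In a drug-repurposing library screen, luminescence reads luciferase driven by eight TEAD-binding elements, stably integrated into human kidney-derived cells. Compounds scoring over five robust Z scores above the plate mean are called hits.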

For the molecule `CC(=O)OC(C)OC(=O)C(C)c1ccc(-c2ccccc2)c(F)c1` (stereo unspecified) [lipo-flurbiprofen], the TEAD-luciferase reporter activity (compound concentration: 200 nM) is inactive: -1.16, the TEAD-luciferase reporter activity (compound concentration: 2 uM) is inactive: -1.5 and the TEAD-luciferase reporter activity (compound concentration: 10 uM) is inactive: -0.479.

On to `CN(C/C=C/C#CC(C)(C)C)Cc1cccc2ccccc12` [terbinafine hydrochloride, Apricus Biosciences], for which, where the note is “compound concentration: 2 uM”, the TEAD-luciferase reporter activity was inactive: -1.39.

Consider `CN(C/C=C/C#CC(C)(C)C)Cc1cccc2ccccc12` [Terbinafine hydrochloride], for which the TEAD-luciferase reporter activity (compound concentration: 200 nM) is inactive: -0.913 and the TEAD-luciferase reporter activity (compound concentration: 10 uM) is inactive: -0.584.

As to `O=C1N=c2cc([N+](=O)[O-])cc(CNCP(=O)(O)O)c2=NC1=O` [Becampanel], the TEAD-luciferase reporter activity is inactive: -1.5 (compound concentration: 200 nM), inactive: -0.924 (compound concentration: 2 uM) and inactive: -2.05 (compound concentration: 10 uM).

As to `COc1ccc(Cl)c(-c2ccc(NC(=O)c3ccnn3C)nc2N)c1`, the TEAD-luciferase reporter activity runs as follows: (compound concentration: 200 nM) inactive: 0.0697; (compound concentration: 2 uM) active: 9.12; (compound concentration: 10 uM) active: 8.78.

For `CCOC(=O)C(CCc1ccccc1)NC(C)C(=O)N1CC2(CC1C(=O)O)SCCS2` (stereo unspecified) [spirapril], the TEAD-luciferase reporter activity (compound concentration: 200 nM) was inactive: 2.47, the TEAD-luciferase reporter activity (compound concentration: 2 uM) is inactive: -1.55 and the TEAD-luciferase reporter activity (compound concentration: 10 uM) was inactive: 0.964.

With `COc1ccc(C2CNC(=O)C2)cc1OC1CCCC1` (stereo unspecified), the TEAD-luciferase reporter activity is inactive: -1.22 (compound concentration: 200 nM) and inactive: 1.16 (compound concentration: 10 uM).

Take `COc1ccc(C2CNC(=O)C2)cc1OC1CCCC1` (stereo unspecified) [rolipram]: the TEAD-luciferase reporter activity (compound concentration: 2 uM) is inactive: 2.26.

Take `C[Si](C)(Cc1ccc(F)cc1)CN1CCCCC1` [Silperisone hydrochloride]: the TEAD-luciferase reporter activity is inactive: 1.2 (compound concentration: 200 nM), inactive: 0.14 (compound concentration: 2 uM) and inactive: -0.82 (compound concentration: 10 uM).

On to `NC(=O)N(O)CCC#C[C@@H]1CC[C@@H](COc2ccc(F)cc2)O1`, for which the TEAD-luciferase reporter activity (compound concentration: 200 nM) is inactive: -2.02, the TEAD-luciferase reporter activity (compound concentration: 2 uM) was inactive: -0.9 and the TEAD-luciferase reporter activity (compound concentration: 10 uM) is active: 6.91.

On to `NC(CC(=O)[O-])C(=O)[O-]` (stereo unspecified) [magnesium aspartate HCl], for which the TEAD-luciferase reporter activity is inactive: -1.08 (compound concentration: 200 nM), inactive: -1.36 (compound concentration: 2 uM) and inactive: 1.48 (compound concentration: 10 uM).

As for `CCN(CC)CCOCCC1=CCC2CC1C2(C)C` (stereo unspecified), the TEAD-luciferase reporter activity runs as follows: (compound concentration: 200 nM) inactive: -0.456; (compound concentration: 2 uM) inactive: -1.82; (compound concentration: 10 uM) inactive: -0.227.

For `COc1cc2c(cc1OC)CN(C(=O)[C@@H]1CCCN(CCNC(=O)c3ccc(F)cc3)C1)CC2`, the TEAD-luciferase reporter activity is, setting by setting: (compound concentration: 200 nM) inactive: 0.00665; (compound concentration: 2 uM) inactive: -1.11; (compound concentration: 10 uM) inactive: 2.2.

In the case of `C[C@](N)(CO)C(=O)Nc1ccc(OCCc2ccc(-c3ccccc3)cc2)cc1`, the TEAD-luciferase reporter activity (compound concentration: 200 nM) was inactive: 0.0729, the TEAD-luciferase reporter activity (compound concentration: 2 uM) is inactive: 1.19 and the TEAD-luciferase reporter activity (compound concentration: 10 uM) is inactive: 1.06.

`COc1ccccc1-c1ccc(C(=O)N2CCC(NC(=O)c3ccc(F)cc3)CC2)cc1`: the TEAD-luciferase reporter activity is, setting by setting: (compound concentration: 200 nM) inactive: -1.92; (compound concentration: 10 uM) inactive: -0.256.

Turning to `CCCOc1ccc(-c2cn3ccccc3n2)cc1`, the TEAD-luciferase reporter activity by setting is: (compound concentration: 200 nM) active: 7.38; (compound concentration: 2 uM) inactive: -1.17; (compound concentration: 10 uM) inactive: 0.535.

As to `CCOc1ccc(NC(=O)c2cccc3c2OC[C@H](CO)N3c2ccc(C)cn2)cn1`, the TEAD-luciferase reporter activity is inactive: 3.3 (compound concentration: 200 nM), inactive: -0.298 (compound concentration: 2 uM) and inactive: 0.904 (compound concentration: 10 uM).

With `CC1NC(=O)C2(CCCC2)NC1=O` (stereo unspecified) [alaptide], the TEAD-luciferase reporter activity reads like this: (compound concentration: 200 nM) inactive: 0.156; (compound concentration: 2 uM) inactive: -0.214; (compound concentration: 10 uM) inactive: 0.323.

For `O=C1Nc2ccc(Cl)cc2C(C#CC2CC2)(C(F)(F)F)O1` (stereo unspecified) [efavirenz sprinkle, BMS], the TEAD-luciferase reporter activity is, setting by setting: (compound concentration: 200 nM) inactive: 1.69; (compound concentration: 10 uM) inactive: -0.0496.

`O=C1Nc2ccc(Cl)cc2C(C#CC2CC2)(C(F)(F)F)O1` (stereo unspecified) [efavirenz sprinkle]: the TEAD-luciferase reporter activity (compound concentration: 2 uM) is inactive: -1.36.

As for `CCCCCCCC(=O)O` [octanoic acid], the TEAD-luciferase reporter activity runs as follows: (compound concentration: 200 nM) inactive: -1.09; (compound concentration: 2 uM) inactive: 0.0433; (compound concentration: 10 uM) inactive: -1.15.

Turning to `Cc1nc(N2CCN(Cc3ccc(F)cc3)C2=O)sc1C(=O)NCc1cccnc1`, the TEAD-luciferase reporter activity (compound concentration: 200 nM) is inactive: 0.654, the TEAD-luciferase reporter activity (compound concentration: 2 uM) is inactive: -0.763 and the TEAD-luciferase reporter activity (compound concentration: 10 uM) was inactive: -0.0798.

Regarding `COc1ccc(S(=O)(=O)Nc2cc(C(=O)NC(C)(C)C)ccc2Oc2cc(F)c(CC(=O)O)cc2Cl)cc1`, the TEAD-luciferase reporter activity is inactive: -0.529 (compound concentration: 200 nM), inactive: 1.03 (compound concentration: 2 uM) and inactive: 0.321 (compound concentration: 10 uM).

With `C[Si](C)(C)c1cccc(C(=O)C(F)(F)F)c1`, the TEAD-luciferase reporter activity (compound concentration: 200 nM) is inactive: -0.744, the TEAD-luciferase reporter activity (compound concentration: 2 uM) is inactive: -0.64 and the TEAD-luciferase reporter activity (compound concentration: 10 uM) was inactive: -1.98.

On to `CCCCCCCCCCCCCCCC(=O)OC[C@H](COP(=O)(O)OCCNC(=O)[C@H](C)NC(=O)CC[C@@H](NC(=O)[C@H](C)NC(=O)[C@@H](C)O[C@H]1[C@H](O)[C@@H](CO)OC(O)[C@@H]1NC(C)=O)C(N)=O)OC(=O)CCCCCCCCCCCCCCC` (stereo partly specified) [mifamurtide], for which the TEAD-luciferase reporter activity by setting is: (compound concentration: 200 nM) inactive: -0.0895; (compound concentration: 2 uM) inactive: 0.288; (compound concentration: 10 uM) inactive: 0.662.

Regarding `CC(C)C[C@H](NC(=O)[C@H](CCCCN)NC(=O)[C@H](CCCNC(=N)N)NC(=O)[C@H](C)NC(=O)[C@H](CO)NC(=O)[C@H](CCCCN)NC(=O)[C@H](CCCNC(=N)N)NC(=O)[C@H](C)NC(=O)CNC(=O)[C@@H](NC(=O)[C@H](Cc1ccccc1)NC(=O)CNC(=O)CNC(=O)[C@@H](N)Cc1ccccc1)[C@@H](C)O)C(=O)N[C@@H](C)C(=O)N[C@@H](CC(N)=O)C(=O)N[C@@H](CCC(N)=O)C(=O)O` [Nociceptin], the TEAD-luciferase reporter activity was inactive: -0.918 (compound concentration: 200 nM), inactive: -0.98 (compound concentration: 2 uM) and inactive: 0.733 (compound concentration: 10 uM).

As to `CCC[C@@H]1C[C@@H](C(=O)NC(C2O[C@H](SC)[C@H](OP(=O)(O)O)[C@@H](O)[C@H]2O)[C@H](C)Cl)N(C)C1` (stereo partly specified) [clindamycin phosphate, KV], the TEAD-luciferase reporter activity reads like this: (compound concentration: 200 nM) inactive: 2.44; (compound concentration: 2 uM) inactive: -0.692; (compound concentration: 10 uM) inactive: -0.0389.
